Test results reported in patent US20240197681A1, “METHODS AND COMPOSITIONS RELATING TO PS[…] SEROTONIN RECEPTOR MODULATORS” (Terran Biosciences Inc., priority 2021, published 2024).
“Also recorded” adds a separate entry of the source. At least one structure is not confirmed: it was looked up by name or label, or the drawing left a doubt.

By UniProt entry, the sequences of proteins in these tests, tags left out.
UniProt P35363, whole entry: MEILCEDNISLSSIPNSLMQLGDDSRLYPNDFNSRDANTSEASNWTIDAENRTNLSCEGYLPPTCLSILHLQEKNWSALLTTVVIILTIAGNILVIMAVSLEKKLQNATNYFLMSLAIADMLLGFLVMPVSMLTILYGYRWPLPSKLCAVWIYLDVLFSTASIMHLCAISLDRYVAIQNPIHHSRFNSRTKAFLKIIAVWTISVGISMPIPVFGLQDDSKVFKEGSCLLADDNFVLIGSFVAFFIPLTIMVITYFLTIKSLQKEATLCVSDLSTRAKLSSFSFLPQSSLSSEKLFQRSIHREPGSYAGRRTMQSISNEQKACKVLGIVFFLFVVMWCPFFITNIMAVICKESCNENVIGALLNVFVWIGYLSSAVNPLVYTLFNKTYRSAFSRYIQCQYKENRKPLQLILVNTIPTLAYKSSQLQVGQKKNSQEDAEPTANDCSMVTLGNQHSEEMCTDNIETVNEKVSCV

Assays:
C57Bl/6J mice [1] = test: Sucrose preference test (SPT) after chronic multimodal stress (CMMS); format: in vivo
C57Bl/6J mice [2] = test: Female urine sniff test (FUST) after chronic multimodal stress (CMMS); format: in vivo; details: 24-48 hours after injection
5-HT2A receptor = biological target: T1, 5-HT2A receptor (Mus musculus, UniProt P35363); test: Head twitch response (HTR); format: in vivo, mice; details: for head-twitching compared to mice receiving vehicle or ketanserin alone: vehicle pretreated CMMS mice, 15 minutes immediately following injection
T1 construct: from tissue; host or cells: live mice (whole animal, brain receptors)

C57Bl/6J mice [3] = test: Forced swim test (FST); format: in vivo
TA-CA1 synapses = test: In vitro electrophysiology: AMPA:NMDA ratios of TA-CA1 fEPSPs in hippocampal slices from treated mice; format: in vivo
Experimental: Standard methods were used to prepare […] hippocampal slices. Briefly, mice were euthanized via exposure to isoflurane followed by decapitation. Brains were excised and the hippocampus was quickly dissected from the brain and sectioned on a Leica VT1200 series vibratome in ice-cold artificial cerebrospinal fluid (ACSF) bubbled with 95% O2/5% CO2. The ACSF contained: 124 mM NaCl, 3 mM KCl, 1.25 mM NaH2PO4, 1.5 mM MgSO4, 2.5 mM CaCl2, 26 mM NaHCO3, and 10 mM glucose. Slices were allowed to recover for a minimum of 60 minutes at room temperature in ACSF in a humidified interface chamber before recording.
Use of extracellular recording, rather than whole-cell recording, was chosen for quantification of AMPA:NMDA ratios because of the complications of stress-induced changes in dendritic structure and their electrotonic influence on recordings of distal TA-CAI synapses. For quantification of AMPA:NMDA ratios, ACSF was prepared as stated, but without MgSO4, to leave NMDA channels unblocked. Picrotoxin (100 μM) and CGP54626 (2 μM) were added to block GABAA and GABAB receptors, respectively. Slices were placed in a recording chamber and perfused with this ACSF (1 mL/min) for the duration of the experiment. Glass recording electrodes with resistance of 3-5MΩ were prepared and filled with recording ACSF. These electrodes were placed in stratum lacunosum moleculare (SLM) of area CA1. Concentric bipolar tungsten electrodes were positioned in SLM at least 500 μM from the recording electrode to stimulate temporoammonic afferents (TA). […] Five fEPSPs were again collected at the same stimulation intensities recorded prior to DNQX. […]
AMPA:NMDA ratios of the TA-CAI fEPSPs were quantified as described previously (A. J. Kallarackal et al., 2013 J. Neuroscience. 33, 15669-15764) in order to provide a measure of synaptic strength across slices from different mice. All traces at each intensity were first averaged and the amplitude of FVs quantified. The AMPA component of the fEPSP was quantified as the slope over 1.5 ms at the earliest part of the linear portion of the response for each stimulation intensity, typically 0.1-2.0 ms from its initiation. The NMDA component of the fEPSP slope was quantified over 4 ms at the earliest point of the post-DNQX response fully eliminated by APV. […] For quantification, pairs of responses at the same stimulation intensities were chosen in which the response in the presence of DNQX was closest to 0.1m V in amplitude. […] As an independent measure of synaptic strength, AMPA:FV and NMDA:FV ratios was also computed, calculated from the same pair of responses used for AMPA:NMDA ratios. […]

C57Bl/6J mice [4] = test: Locomotion in open field arena; details: psilocybin 5 mg/kg, pretreatment with saline or ketanserin 2 mg/kg 60 minutes prior
[5] = test system: hippocampal area CA1 in anesthetized mice; test: In vivo electrophysiology: local field potentials in hippocampal CA1; details: psilocybin 10 mg/kg, i.p.
[6] = hippocampal slices from CMMS mice treated with psilocybin 1 mg/kg

CN(C)CCc1c[nH]c2cccc(OP(=O)(O)O)c12 [psilocybin]
sucrose and female urine sniffing preferences in mice having few (<7/15 min) and many (>7/15 min) head twitches (C57Bl/6J mice [1]; CMMS mice given psilocybin 1 mg/kg with or without ketanserin, post hoc separation by head-twitches): Significant improvements; also recorded: robust psilocybin-induced anti-anhedonic effect
sucrose preference in resilient animals (C57Bl/6J mice [1]; resilient mice (sucrose preference >70% following 14 days CMMS), psilocybin 1 mg/kg ip): had no effect on sucrose preference; also recorded: did not display any significant change
sucrose preference (SP) compared to values after CMMS (C57Bl/6J mice [1]; stress-susceptible male mice after 10-14 days CMMS, single drug (psilocybin 1 mg/kg i.p. or ketanserin 2 mg/kg i.p.) plus vehicle injection, 24-48 hours after injection): significantly increased SP; also recorded: significant restoration
sucrose preference (SP) compared to values after CMMS, ketanserin-pretreated (C57Bl/6J mice [1]; stress-susceptible male mice after CMMS, ketanserin 2 mg/kg i.p. 60 minutes prior to psilocybin 1 mg/kg i.p., 24-48 hours after injection): significantly increased
female urine preference compared to values after CMMS (C57Bl/6J mice [2]; stress-susceptible male mice after 10-14 days CMMS, single drug (psilocybin 1 mg/kg i.p. or ketanserin 2 mg/kg i.p.) plus vehicle injection): significantly increased preference for the scent of female urine; also recorded: significant restoration
female urine preference compared to values after CMMS, ketanserin-pretreated (C57Bl/6J mice [2]; stress-susceptible male mice after CMMS, ketanserin 2 mg/kg i.p. 60 minutes prior to psilocybin 1 mg/kg i.p.): significantly increased
head twitching counts in ketanserin pretreated mice receiving psilocybin compared to mice receiving vehicle alone (5-HT2A receptor; ketanserin 2 mg/kg 60 minutes prior to psilocybin 1 mg/kg, first 15 minutes): not significantly different
head twitching counts in mice given psilocybin alone (5-HT2A receptor; psilocybin 1 mg/kg, increased from ca. 1 twitch/3-4 minute): ca. 1 twitch/minute
head-twitching compared to mice receiving vehicle or ketanserin alone (5-HT2A receptor; psilocybin 1 mg/kg): significantly more head twitching
head-twitching compared to mice receiving vehicle or ketanserin alone (5-HT2A receptor; psilocybin 1 mg/kg, listed as vehicle-psilocybin): increase in head-twitching
immobility time in the forced swim test, female cohort (C57Bl/6J mice [3]; unstressed female C57Bl/6J mice, psilocybin 1 mg/kg vs saline, 1, 3 and 7 days post-injection): no effect of psilocybin
immobility time in the forced swim test, male cohort (C57Bl/6J mice [3]; unstressed male C57Bl/6J mice, psilocybin 1 mg/kg vs saline, 1, 3 and 7 days post-injection): no effect of psilocybin
immobility time in the forced swim test (C57Bl/6J mice [3]; unstressed male or female C57Bl/6J mice, psilocybin 1 mg/kg, one, three, or seven days post-injection): has no effect on immobility time; also recorded: No effect of psilocybin
AMPA:FV ratio of the fEPSP (AMPAR-mediated component) (TA-CA1 synapses; [6]): increased the AMPA:FV ratio; also recorded: greater amplitude of the AMPAR-mediated component
NMDA:FV ratio of the fEPSP (NMDAR-mediated component) (TA-CA1 synapses; [6]): did not change the NMDA:FV ratio; also recorded: no significant change in the NMDAR-mediated component
AMPA:NMDA ratios at TA-CA1 synapses compared to stressed mice given only vehicle or ketanserin (TA-CA1 synapses; hippocampal slices from CMMS-susceptible mice, psilocybin 1 mg/kg, regardless of ketanserin or vehicle pretreatment): higher AMPA:NMDA ratios; also recorded: significantly greater; also recorded: significantly higher
AMPA:NMDA ratios in high (many) versus low (few) head-twitching mice (TA-CA1 synapses; mice given psilocybin with and without ketanserin): no difference between groups; also recorded: elevated to the same extent
time in the center of the arena at 30-60 minutes (C57Bl/6J mice [4]; compared to control mice): less center time
distance travelled in open field at 30-60 minutes (C57Bl/6J mice [4]; compared to controls): hypolocomotion
hippocampal local field potential activity in the low frequency range (delta frequency band, 0-4 Hz) [5]: acutely reduced hippocampal local field potential activity in the low frequency range; also recorded: decreased the power of oscillations in the delta frequency band
